Article PMC11647504, “The GPCR adaptor protein Norbin controls the trafficking of C5aR1 and CXCR4 in mouse neutrophils” (The Journal of Biological Chemistry, 2024)
Positions count from the first letter of the chain named. No constants are given. Whether binding was seen depends on the method and setting. For some of these results: In cells and extracts the contact can be indirect. Some entries that bind do so weakly or less than the wild type. For some of these results: Sequences can lack the tags named with a protein.

Legend:
[1] = target: T1, Endogenous Norbin of mouse neutrophils (mouse (endogenous in primary neutrophils)) (UniProt Q9Z0E0); assay: co-IP; Purified Ncdn^fl/fl mouse neutrophils lysed by sonication, 0.1% NP40; endogenous Norbin (pool of Norbin antibodies) or endogenous C5aR1 (C5aR1 antibody) immunoprecipitated from the supernatant with protein A magnetic beads, on ice; western blot for C5aR1 and Norbin; unstimulated cells
T1 sequence: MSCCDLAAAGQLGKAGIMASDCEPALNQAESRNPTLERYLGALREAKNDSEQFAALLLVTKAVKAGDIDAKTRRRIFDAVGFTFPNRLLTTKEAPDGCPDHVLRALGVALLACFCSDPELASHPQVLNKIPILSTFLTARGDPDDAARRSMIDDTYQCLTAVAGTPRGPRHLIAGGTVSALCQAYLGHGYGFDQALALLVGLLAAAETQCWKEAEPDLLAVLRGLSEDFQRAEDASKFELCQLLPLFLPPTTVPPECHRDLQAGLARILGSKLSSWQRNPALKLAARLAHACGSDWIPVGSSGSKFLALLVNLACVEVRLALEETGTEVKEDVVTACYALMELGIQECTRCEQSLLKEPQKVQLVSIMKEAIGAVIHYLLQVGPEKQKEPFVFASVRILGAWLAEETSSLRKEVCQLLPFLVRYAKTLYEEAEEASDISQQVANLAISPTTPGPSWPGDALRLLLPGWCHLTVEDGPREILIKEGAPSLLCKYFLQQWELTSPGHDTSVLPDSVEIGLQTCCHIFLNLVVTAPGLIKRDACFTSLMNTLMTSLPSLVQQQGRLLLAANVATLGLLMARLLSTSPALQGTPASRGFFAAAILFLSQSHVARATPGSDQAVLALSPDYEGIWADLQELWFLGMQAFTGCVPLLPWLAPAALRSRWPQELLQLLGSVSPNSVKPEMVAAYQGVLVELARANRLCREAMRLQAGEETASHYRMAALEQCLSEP

[2] = target: T2, Endogenous C5aR1 of mouse neutrophils (mouse (endogenous in primary neutrophils)) (UniProt P30993); assay: as above
T2 sequence (chain, glycosylated (as the paper says of C5aR1)): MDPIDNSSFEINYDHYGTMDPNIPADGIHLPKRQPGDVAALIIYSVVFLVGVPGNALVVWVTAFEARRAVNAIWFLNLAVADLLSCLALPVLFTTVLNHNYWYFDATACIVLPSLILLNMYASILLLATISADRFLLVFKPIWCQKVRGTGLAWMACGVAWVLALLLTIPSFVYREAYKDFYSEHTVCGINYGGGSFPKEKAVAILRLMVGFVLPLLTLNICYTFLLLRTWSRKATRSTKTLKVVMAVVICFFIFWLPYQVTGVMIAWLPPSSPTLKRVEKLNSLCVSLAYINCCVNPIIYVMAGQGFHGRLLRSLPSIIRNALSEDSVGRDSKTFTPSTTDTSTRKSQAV

[3] = target: T3, GST-tagged C-terminal tail of CXCR1; assay: pull-down; GST-tagged GPCR C-terminal tails (or GST) from bacterial lysates bound to glutathione Sepharose, washed twice in PBS, 2% Triton X-100, 5 mM DTT, incubated with 50 μg purified recombinant His-Norbin for 3 h at 4 °C, washed 3 x in PBS, 1% Triton X-100; western blot with His antibody; both purified
T3 sequence: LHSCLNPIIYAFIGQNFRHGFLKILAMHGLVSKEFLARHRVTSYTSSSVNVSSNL

[4] = target: T4, GST-tagged C-terminal tail of CXCR2; assay: as above
T4 sequence: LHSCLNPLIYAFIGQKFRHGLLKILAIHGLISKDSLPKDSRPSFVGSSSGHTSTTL

B1: Endogenous C5aR1 of mouse neutrophils (receptor, UniProt P30993 1-351)
chain: T2 sequence (chain, glycosylated (as the paper says of C5aR1))
modifications: glycosylated (as the paper says of C5aR1)
binding [1]: binds

B2: Endogenous Norbin of mouse neutrophils (protein, UniProt Q9Z0E0 1-729)
chain: T1 sequence
binding [2]: binds

B3: Recombinant His-Norbin (His-tagged rat Norbin protein) (protein, UniProt O35095 1-729)
chain: T1 sequence with S134C, Q381R, S455A
binding [3]: no binding (tested: 50 μg His-Norbin)
binding [4]: no binding (tested: 50 μg His-Norbin)
